These are yes or no findings as the source states them, for the method shown. Binding seen in cells or lysates may run through a third protein. Binding can be weak; no strength is given. Where a sequence is shown, tags or fusion partners need not be part of it.
Target: AKT (human (endogenous in 293T))
Experiment: co-IP; 293T cells with or without overexpressed CRLF1; precipitation with antibodies against AKT or SIN1 and protein A Sepharose beads; IP buffer 20 mM Tris pH 7.5, 150 mM NaCl, 1% Triton X-100, 1 mM EDTA; also with CRLF1 knock-down (Fig. 7C)

binding: binds
B1: cytokine receptor-like factor 1 (CRLF1), full length, C-terminal His-tagged (protein, UniProt O75462 38-422)
chain: AHTAVISPQDPTLLIGSSLLATCSVHGDPPGATAEGLYWTLNGRRLPPELSRVLNASTLALALANLNGSRQRSGDNLVCHARDGSILAGSCLYVGLPPEKPVNISCWSKNMKDLTCRWTPGAHGETFLHTNYSLKYKLRWYGQDNTCEEYHTVGPHSCHIPKDLALFTPYEIWVEATNRLGSARSDVLTLDILDVVTTDPPPDVHVSRVGGLEDQLSVRWVSPPALKDFLFQAKYQIRYRVEDSVDWKVVDDVSNQTSCRLAGLKPGTVYFVQVRCNPFGIYGSKKAGIWSEWSHPTAASTPRSERPGPGGGACEPRGGEPSSGPVRRELKQFLGWLKKHAYCSNLSFRLYDQWRAWMQKSHKTRNQDEGILPSGRRGTARGPAR

Source: PMC11387770
